# Reference: the supplement of paper PMC11542785
# Counter-ions that a name gives are not always drawn. Some of the results follow. Many values rest on one well or one pass, so single values are uncertain.
# Test system: Drosophila melanogaster DPAGT1 (Alg7) RNAi eye model
# Experiment: eye size Z-score vs DMSO-treated DPAGT1 model flies; higher = larger eye (suppression of DPAGT1 phenotype)
# Settings: 5 uM
SMILES,eye size Z-score,eye size Z-score (female)
Brc1c(NC2=NCCN2)ccc2nccnc12 [Brimonidine L-tartrate],0.46,–
CN(C)CCOC(=O)COc1ccc(Cl)cc1 [Meclofenoxate hydrochloride],–,0.11
CCCc1nc(C(C)(C)O)c(C(=O)O)n1Cc1ccc(-c2ccccc2-c2nnn[nH]2)cc1 [Olmesartan],-0.51,–
Cc1ccc2c(Cl)cc(Cl)c(O)c2n1 [Chlorquinaldol],0.31,–
N=C(N)N/N=C/c1c(Cl)cccc1Cl [Guanabenz acetate],-0.35,–
"OC(CCN1CCCCC1)(c1ccccc1)C1CCCCC1 (configuration not stated) [Trihexyphenidyl-D,L hydrochloride]",-0.36,–
CC1(C)S[C@@H]2[C@H](NC(=O)C(c3ccccc3)S(=O)(=O)O)C(=O)N2[C@H]1C(=O)O (some centres not stated) [Sulbenicillin sodium salt],-0.46,–
CN(CCOc1ccc(CC2SC(=O)NC2=O)cc1)c1ccccn1 (configuration not stated) [Rosiglitazone hydrochloride],-0.22,–
CCC(=O)OCC(=O)[C@@]1(OC(=O)CC)[C@H](C)C[C@H]2[C@H]3[C@H]([C@@H](O)C[C@@]21C)[C@@]1(C)C=CC(=O)C=C1C[C@H]3Cl [Alclometasone dipropionate],-0.05,–
COc1ccc(C[C@@H]2c3cc(OC)c(OC)cc3CC[N@+]2(C)CCC(=O)OCCCCCOC(=O)CC[N@@+]2(C)CCc3cc(OC)c(OC)cc3[C@H]2Cc2ccc(OC)c(OC)c2)cc1OC [Cisatracurium besylate],0.6,–
Nc1cc(-c2ccncc2)c[nH]c1=O [Amrinone],0.1,–
CC(N)C12CC3CC(CC(C3)C1)C2 (configuration not stated) [Rimantadine hydrochloride],0.37,–
N#Cc1ccc(Oc2ccc3c(c2)COB3O)cc1 [Crisaborole],0.68,–
OCCOCCN1CCN(C(c2ccccc2)c2ccc(Cl)cc2)CC1 (configuration not stated) [Hydroxyzine dihydrochloride],-0.58,–
C=CC1=C(C(=O)O)N2C(=O)[C@@H](NC(=O)/C(=N\OCC(=O)O)c3csc(N)n3)[C@H]2SC1 [Cefixime],0.14,–
Cc1cc(-n2c(=O)[nH]c(=O)n(C)c2=O)ccc1Oc1ccc(SC(F)(F)F)cc1 [Toltrazuril],0.21,–
Cc1ccccc1N1C(=O)c2cc(S(N)(=O)=O)c(Cl)cc2NC1C (configuration not stated) [Metolazone],-0.49,–
COc1ccc2[nH]c([S+]([O-])Cc3ncc(C)c(OC)c3C)nc2c1 (configuration not stated) [Omeprazole],0.11,–
CC(=O)Nc1ccc(O)cc1 [Acetaminophen],-0.73,–
CO/N=C(\C(=O)N[C@@H]1C(=O)N2C(C(=O)O)=C(C[N+]3(C)CCCC3)CS[C@H]12)c1csc(N)n1 [Cefepime hydrochloride],-0.24,–
CCOC(=O)[C@H](CCc1ccccc1)N[C@@H](C)C(=O)N1CCC[C@H]1C(=O)O [Enalapril maleate],-0.12,–
CC(Oc1c(Cl)cccc1Cl)C1=NCCN1 (configuration not stated) [Lofexidine],-0.27,–
CC1=C(CC(=O)O)c2cc(F)ccc2/C1=C\c1ccc([S+](C)[O-])cc1 (configuration not stated) [Sulindac],1.17,–
CN(C)CCCO[C@@H]1[C@H]2OC(C)(C)O[C@H]2O[C@@H]1[C@H](O)CO [Amiprilose hydrochloride],-0.08,–

# Molecules above that have an aryl methoxy group (two):
SMILES,eye size Z-score,eye size Z-score (female)
COc1ccc(C[C@@H]2c3cc(OC)c(OC)cc3CC[N@+]2(C)CCC(=O)OCCCCCOC(=O)CC[N@@+]2(C)CCc3cc(OC)c(OC)cc3[C@H]2Cc2ccc(OC)c(OC)c2)cc1OC [Cisatracurium besylate],0.6,–
COc1ccc2[nH]c([S+]([O-])Cc3ncc(C)c(OC)c3C)nc2c1 (configuration not stated) [Omeprazole],0.11,–

# The results go on:

SMILES,eye size Z-score,eye size Z-score (female)
C[C@]12CC[C@@H]3c4ccc(O)cc4CC[C@H]3[C@@H]1C[C@@H](O)[C@@H]2O [Estriol],-0.97,–
CCc1cccc2c3c([nH]c12)C(CC)(CC(=O)O)OCC3 (configuration not stated) [Etodolac],-0.41,–
Cc1noc(NS(=O)(=O)c2ccc(N)cc2)c1C [Sulfisoxazole],0.08,–
CC[N+](CC)(CC)CCC(O)(c1ccccc1)C1CCCCC1 (configuration not stated) [Tridihexethyl chloride],0.06,–
CN1CCOC(c2ccccc2)c2ccccc2C1 (configuration not stated) [Nefopam hydrochloride],-0.27,–
CN1CCC(=C2c3ccccc3CCc3sccc32)CC1 [Pizotifen malate],-0.56,–
CN(C)[C@@H]1C(O)=C(C(=O)NCNCCCC[C@H](N)C(=O)O)C(=O)[C@@]2(O)C(O)=C3C(=O)c4c(O)cccc4[C@@](C)(O)[C@H]3C[C@@H]12 [Lymecycline],1.1,–
CCCCNc1ccc(C(=O)OCCN(C)C)cc1 [Tetracaine hydrochloride],0.13,–
O=C(Cn1cnnn1)N[C@@H]1C(=O)N2C(C(=O)O)=C(CSc3nncs3)CS[C@H]12 [Ceftezole],0.37,–
CCCCCOC(=O)Nc1nc(=O)n([C@@H]2O[C@H](C)[C@@H](O)[C@H]2O)cc1F [Capecitabine],–,1.12
COc1ccccc1N1CCN(CCCCNC(=O)c2ccc3ccccc3c2)CC1,0.26,–
CCC1NC(=O)c2cc(S(N)(=O)=O)c(Cl)cc2N1 (configuration not stated) [Quinethazone],-0.17,–
Cc1cnc(C(=O)NCCc2ccc(S(=O)(=O)NC(=O)NC3CCCCC3)cc2)cn1 [Glipizide],0.58,–
O=C1[C@H](CC[C@H](O)c2ccc(F)cc2)[C@@H](c2ccc(O)cc2)N1c1ccc(F)cc1 [Ezetimibe],0.24,–
COC(=O)C1=C(C)NC(C)=C(C(=O)OCCN(C)Cc2ccccc2)C1c1cccc([N+](=O)[O-])c1 (configuration not stated) [Nicardipine hydrochloride],0.69,–
OC[C@H]1O[C@@H](c2ccc(Cl)c(Cc3ccc(O[C@H]4CCOC4)cc3)c2)[C@H](O)[C@@H](O)[C@@H]1O [Empagliflozin],0.28,–
CN1CCN(c2c(F)cc3c(=O)c(C(=O)O)cn4c3c2SCC4)CC1 [Rufloxacin],-0.8,–
COC(=O)C1=C(C)NC(C)=C(C(=O)OCC(C)C)C1c1ccccc1[N+](=O)[O-] (configuration not stated) [Nisoldipine],0.69,–
CN(C)CCOC(c1ccc(Cl)cc1)c1ccccn1 (configuration not stated) [Carbinoxamine maleate salt],0.42,–
O=C1CCc2ccc(OCCCCN3CCN(c4cccc(Cl)c4Cl)CC3)cc2N1 [Aripiprazole],-0.91,–
NC(=O)NC1NC(=O)NC1=O (configuration not stated) [Allantoin],0.47,–
CNCc1cc(-c2ccccc2F)n(S(=O)(=O)c2cccnc2)c1 [Vonoprazan],0.68,–
"CC(C)NCC(O)c1ccc(O)c(O)c1 (single isomer, unassigned; (-)) [(-) Isoproterenol hydrochloride]",-0.14,–
